The record followed here is US20260184786A1 (LINDIS BIOTECH, published 2026).

The chains behind the UniProt entries cited, without tags or fusion partners. Where a name states a change or a piece, a line headed by the entry shows the natural chain unless it says otherwise. Residues count along the entry.
UniProt P07766: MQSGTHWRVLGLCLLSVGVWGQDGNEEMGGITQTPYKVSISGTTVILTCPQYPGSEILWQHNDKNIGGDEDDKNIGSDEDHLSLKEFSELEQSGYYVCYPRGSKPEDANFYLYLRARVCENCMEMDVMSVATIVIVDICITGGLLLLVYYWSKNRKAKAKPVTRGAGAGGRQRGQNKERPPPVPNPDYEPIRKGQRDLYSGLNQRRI
UniProt P09693: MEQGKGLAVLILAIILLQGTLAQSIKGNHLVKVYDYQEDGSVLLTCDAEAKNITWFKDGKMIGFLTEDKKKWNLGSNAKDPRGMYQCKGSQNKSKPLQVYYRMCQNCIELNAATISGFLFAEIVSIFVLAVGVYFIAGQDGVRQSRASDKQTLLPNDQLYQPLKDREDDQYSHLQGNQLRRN
UniProt P04234: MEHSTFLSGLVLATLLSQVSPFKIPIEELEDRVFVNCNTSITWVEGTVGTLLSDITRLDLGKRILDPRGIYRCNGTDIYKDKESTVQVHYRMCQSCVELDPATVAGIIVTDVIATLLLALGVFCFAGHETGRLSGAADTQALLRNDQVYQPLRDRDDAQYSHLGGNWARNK
UniProt P02769, residues 25-607: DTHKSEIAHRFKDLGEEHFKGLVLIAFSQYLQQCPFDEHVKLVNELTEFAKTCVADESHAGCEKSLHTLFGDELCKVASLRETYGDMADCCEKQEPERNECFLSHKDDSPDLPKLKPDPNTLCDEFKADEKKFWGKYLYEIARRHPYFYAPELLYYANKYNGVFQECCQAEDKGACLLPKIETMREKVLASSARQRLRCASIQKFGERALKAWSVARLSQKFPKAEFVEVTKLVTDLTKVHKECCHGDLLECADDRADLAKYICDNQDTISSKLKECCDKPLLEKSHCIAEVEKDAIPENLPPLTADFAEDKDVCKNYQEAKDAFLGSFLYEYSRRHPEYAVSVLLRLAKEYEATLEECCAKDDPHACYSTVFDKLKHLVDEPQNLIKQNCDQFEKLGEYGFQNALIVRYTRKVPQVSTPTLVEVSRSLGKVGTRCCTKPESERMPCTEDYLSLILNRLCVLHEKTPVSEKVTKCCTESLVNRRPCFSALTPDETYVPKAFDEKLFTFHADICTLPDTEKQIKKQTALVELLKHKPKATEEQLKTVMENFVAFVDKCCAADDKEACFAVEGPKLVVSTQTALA

For one assay, the target named is T1, CD3 on Jurkat cells (human, UniProt P07766;P09693;P04234).
T1 construct: on the surface of Jurkat cells
The assay is described as follows: flow cytometry on Jurkat cells, FITC-labelled secondary antibody, MFI (Example 3).

The next assay concerns the target BSA (bovine) (UniProt P02769). The experiment in a line: ELISA of Example 2, curve labelled BSA in the panel's legend box.
A further assay concerns the target T2, Human CD3E & CD3G (human, UniProt P07766;P09693).
T2 construct: recombinant, tag given as Lama Fc; also called CD3E & CD3G heterodimer protein; CD3E/G antigen
The assay is described as follows: ELISA, plate coated with CD3E & CD3G heterodimer protein (100 ng/well), anti-His tag HRP detection (Example 2).

No constants are given. Whether binding was seen depends on the method and setting. Some entries that bind do so weakly or less than the wild type.

B1: VH_V2_VL_V4 (antibody, V domains shown)
VH: EVQLVESGGGLVQPGRSLRLSCAASGFTFNNYWMSWVRQAPGKGLEWVSAITKTGGSTYYPDSVKGRFTISRDNSKSTLYLQMNSLRAEDTATYYCTREYYYDPYIDYWGQGVLVTVSS
VL: QFALTQPRSVSGSLGQSVTLSCTRTTGNIGSNYVNWYQQHEGKAPKTMIYRDDKRPSGVPDRFSGSIDRSSNTASLTISGVQAEDEADYYCQSYSSGINIFGGGTKLTVL
notes: also called HV2-LV4
Regarding B1, the binding entry is “binds” in the assay with CD3 on Jurkat cells, “no binding (tested: 10 µg/ml)” with BSA (bovine) and “binds” with Human CD3E & CD3G.

B2: VH_V1_VL_V5 (antibody, V domains shown)
VH: EVQLVESGGGLVQPGGSLRLSCAASGFTFNNYWMSWVRQAPGKGLEWVSAITKTGGSTYYADSVKGRFTISRDNSKNTLYLQMNSLRAEDTAVYYCTREYYYDPYIDYWGQGTLVTVSS
VL: QSALTQPRSVSGSPGQSVTISCTRTTGNIGSNYVNWYQQHPGKAPKTMIYRDDKRPSGVPDRFSGSIDSSSNTASLTISGLQAEDEADYYCQSYSSGINIFGGGTKLTVL
In the case of B2, the values for the binding entry with BSA (bovine) and with Human CD3E & CD3G were “no binding (tested: 10 µg/ml)” and “binds”, respectively.

B3: VH_V1_VL_V1 (antibody, V domains shown)
VH: EVQLVESGGGLVQPGGSLRLSCAASGFTFNNYWMSWVRQAPGKGLEWVSAITKTGGSTYYADSVKGRFTISRDNSKNTLYLQMNSLRAEDTAVYYCTREYYYDPYIDYWGQGTLVTVSS
VL: QSALTQPRSVSGSPGQSVTISCTGTTGNIGSNYVSWYQQHPGKAPKLMIYRDDKRPSGVPDRFSGSKSGNTASLTISGLQAEDEADYYCQSYSSGINIFGGGTKLTVL
As for B3, the binding result with BSA (bovine) is listed as “no binding (tested: 10 µg/ml)”; in the assay with Human CD3E & CD3G it was “binds”.

B4: VH_V4_VL_V4 (antibody, V domains shown)
VH: EVQLVESGGGLVQPGGSLRLSCAASGFTFNNYWMTWIRQAPGKGLEWVASITKTGGSTYYPDSVKGRFTISRDNSKSTLYLQMNSLRAEDTAVYYCTREYYYDPYIDYWGQGTLVTVSS
VL: QFALTQPRSVSGSLGQSVTLSCTRTTGNIGSNYVNWYQQHEGKAPKTMIYRDDKRPSGVPDRFSGSIDRSSNTASLTISGVQAEDEADYYCQSYSSGINIFGGGTKLTVL
notes: also called HV4-LV4
Turning to B4, the binding result was “binds” with CD3 on Jurkat cells, “no binding (tested: 10 µg/ml)” with BSA (bovine) and “binds” in the assay with Human CD3E & CD3G.

B5: VH_V1_VL_V4 (antibody, V domains shown)
VH: EVQLVESGGGLVQPGGSLRLSCAASGFTFNNYWMSWVRQAPGKGLEWVSAITKTGGSTYYADSVKGRFTISRDNSKNTLYLQMNSLRAEDTAVYYCTREYYYDPYIDYWGQGTLVTVSS
VL: QFALTQPRSVSGSLGQSVTLSCTRTTGNIGSNYVNWYQQHEGKAPKTMIYRDDKRPSGVPDRFSGSIDRSSNTASLTISGVQAEDEADYYCQSYSSGINIFGGGTKLTVL
notes: also called HV1-LV4
In the case of B5, the binding result is reported as “binds” with CD3 on Jurkat cells, “no binding (tested: 10 µg/ml)” with BSA (bovine) and “binds” with Human CD3E & CD3G.

B6: VH_V3_VL_V4 (antibody, V domains shown)
VH: EVQLVESGGGLVQPGRSLRLSCAASGFTFNNYWMSWVRQAPGKGLEWVASITKTGGSTYYPDSVKGRFTISRDNAKSTLYLQMNSLRSEDTATYYCTREYYYDPYIDYWGQGVLVTVSS
VL: QFALTQPRSVSGSLGQSVTLSCTRTTGNIGSNYVNWYQQHEGKAPKTMIYRDDKRPSGVPDRFSGSIDRSSNTASLTISGVQAEDEADYYCQSYSSGINIFGGGTKLTVL
notes: also called HV3-LV4
Consider B6, for which the binding result with CD3 on Jurkat cells is recorded as “binds”; with BSA (bovine), “no binding (tested: 10 µg/ml)”; with Human CD3E & CD3G, “binds”.
